Assay results from paper PMC3372510.
These are yes or no findings as the source states them, for the method shown. For some assays here: In cells and extracts the contact can be indirect. Some binding calls cover weakened binding; strength is not graded here. Tags and fused reporters may be left off the sequences shown. Blank lines part the entries; values can stand above or below the molecule they belong to.

Protein sequences, listed by entry. Tags and fused reporters are not part of them.
UniProt Q14974: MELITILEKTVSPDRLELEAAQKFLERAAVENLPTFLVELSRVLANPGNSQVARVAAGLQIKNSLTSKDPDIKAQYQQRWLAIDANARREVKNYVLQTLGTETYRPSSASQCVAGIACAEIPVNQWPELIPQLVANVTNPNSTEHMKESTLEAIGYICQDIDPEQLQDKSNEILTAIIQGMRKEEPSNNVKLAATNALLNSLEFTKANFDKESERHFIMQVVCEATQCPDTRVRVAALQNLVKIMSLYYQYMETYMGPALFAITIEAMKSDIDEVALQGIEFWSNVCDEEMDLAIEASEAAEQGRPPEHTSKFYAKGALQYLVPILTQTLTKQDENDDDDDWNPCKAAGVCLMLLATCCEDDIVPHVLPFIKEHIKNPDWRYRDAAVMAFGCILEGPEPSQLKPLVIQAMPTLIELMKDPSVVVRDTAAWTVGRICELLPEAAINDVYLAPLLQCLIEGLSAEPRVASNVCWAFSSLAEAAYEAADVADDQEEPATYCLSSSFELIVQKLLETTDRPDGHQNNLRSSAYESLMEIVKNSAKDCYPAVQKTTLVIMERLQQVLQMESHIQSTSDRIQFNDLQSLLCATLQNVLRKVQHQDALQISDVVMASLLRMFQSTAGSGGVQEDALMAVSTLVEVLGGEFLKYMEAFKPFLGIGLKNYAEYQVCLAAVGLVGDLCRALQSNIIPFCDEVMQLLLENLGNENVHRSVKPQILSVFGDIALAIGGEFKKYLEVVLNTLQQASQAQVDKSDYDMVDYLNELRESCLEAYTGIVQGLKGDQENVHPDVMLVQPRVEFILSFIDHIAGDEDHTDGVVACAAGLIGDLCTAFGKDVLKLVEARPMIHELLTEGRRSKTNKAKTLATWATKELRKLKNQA

Legend:
[1] = biological target: T1, GST-ARTD15 (recombinant, full length) (human) (UniProt Q8N5Y8); assay: pull-down; GST-ARTD15 or GST (0.1 µM) incubated over-night at 4°C with increasing amounts of His-Kapß1 in 50 mM Tris-HCl pH 7.4, 100 mM NaCl, 0.1% Triton X-100, 0.1% NP-40, 1 mg/ml BSA; Glutathione Sepharose 4B; anti-His blot; both purified
T1 sequence: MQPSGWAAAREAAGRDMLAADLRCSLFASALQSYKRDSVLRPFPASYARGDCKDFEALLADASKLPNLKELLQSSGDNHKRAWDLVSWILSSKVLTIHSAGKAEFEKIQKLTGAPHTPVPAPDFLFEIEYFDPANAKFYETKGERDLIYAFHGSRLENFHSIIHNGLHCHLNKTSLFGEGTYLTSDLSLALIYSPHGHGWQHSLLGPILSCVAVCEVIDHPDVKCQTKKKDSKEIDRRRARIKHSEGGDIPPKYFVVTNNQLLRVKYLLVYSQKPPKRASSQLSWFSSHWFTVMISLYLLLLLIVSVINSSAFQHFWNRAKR

[2] = biological target: Karyopherin-ß1/importin-ß1 (endogenous) (human (endogenous in HEK293 and HeLa)) (UniProt Q14974); assay: co-IP; total lysates (2 mg) of HeLa cells over-expressing FLAG-ARTD15 immunoprecipitated with anti-Kapß1 antibody or control IgG, over-night at 4°C, protein-A sepharose; IP buffer with 0.2% Triton X-100; immunoblot

- binding [1]: binds
Molecule: His-Kapß1 (recombinant, full length) (from UniProt Q14974 1-876)

- binding [2]: binds
B1: FLAG-ARTD15 (human PARP16/ARTD15, N-terminally FLAG-tagged, full length) (enzyme, UniProt Q8N5Y8 1-322)
chain: T1 sequence
